Measured values from article PMC3299563, “Salt Bridges Regulate Both Dimer Formation and Monomeric Flexibility in HdeB and May Have a Role in Periplasmic Chaperone Function” (Journal of Molecular Biology, 2011).
Where a chain is given by its changes, count along the chain named. Names may count otherwise. Results are given in words; binding and its absence hold for the method and conditions named. For some of these results: Tags and fused reporters may be left off the sequences shown. Each block holds one binder with its values, some of them ahead of it.

Experiments:
[1] = molecular target: HdeB double mutant (W55A, W56A) (E. coli) (UniProt P0AET2); assay: SEC; gel filtration at neutral pH (pH 7); both purified
[2] = molecular target: HdeB-His6 WT (E. coli) (UniProt P0AET2); assay: SEC; gel filtration at low pH (pH 2.5 for the wild type); both purified
[3] = molecular target: HdeB-His6 WT (E. coli) (UniProt P0AET2); assay: other fluorescence titration; intrinsic tryptophan fluorescence (emission maximum, acrylamide quenching, anisotropy) against pH; 50 μM HdeB, McIlvaine buffer or 10 mM KCl with HCl, 20 °C; acid side of the transition (below around pH 3 for the wild type); both purified
[4] = molecular target: HdeB E41Q (E. coli) (UniProt P0AET2); assay: condition: only at low pH (apparent pKa ∼ 0.5 pH units higher than that of wild type); 50 μM; other fluorescence titration; intrinsic tryptophan fluorescence (emission maximum, acrylamide quenching, anisotropy) against pH; 50 μM HdeB, McIlvaine buffer or 10 mM KCl with HCl, 20 °C; acid side of the transition (below around pH 3 for the wild type); both purified
[5] = molecular target: HdeB D76N (E. coli) (UniProt P0AET2); assay: SEC; gel filtration at low pH (pH 2.5 for the wild type); both purified
[6] = molecular target: HdeB D76N (E. coli) (UniProt P0AET2); assay: other fluorescence titration; intrinsic tryptophan fluorescence (emission maximum, acrylamide quenching, anisotropy) against pH; 50 μM HdeB, McIlvaine buffer or 10 mM KCl with HCl, 20 °C; acid side of the transition (below around pH 3 for the wild type); both purified
[7] = molecular target: HdeB H59N (E. coli) (UniProt P0AET2); assay: as above

B1: HdeB double mutant (W55A, W56A) (protein, UniProt P0AET2 30-108)
chain: ANESAKDMTCQEFIDLNPKAMTPVAAAMLHEETVYKGGDTVTLNETDLTQIPKVIEYCKKNPQKNLYTFKNQASNDLPN
binding [1]: no binding

B2: HdeB-His6 WT (natural protein, E. coli, UniProt P0AET2 30-108, looked up)
chain: B1 chain with A26W, A27W
notes: HdeB, E. coli periplasmic acid-stress chaperone; begins at A30; A30 to A102 ordered in the crystal plus six disordered C-terminal residues; residue numbers count on the precursor; Cloned with hdeA (hdeAB genes) in pTrc99A; primers are in the Supplementary Data; also called HdeB WT; wild type; source: E. coli MG1655ΔhdeAB, plasmid pTrcHdeABHis6, 1 mM IPTG, purified (Ni resin, gel filtration); not …
binding [2]: no binding (condition: at pH 2.5) | binding [3]: no binding (condition: below around pH 3)

B5: HdeB H59N (natural protein, E. coli, UniProt P0AET2 30-108, looked up)
chain: B1 chain with A26W, A27W, H30N
notes: HdeB, E. coli, with H59N; residue numbers count on the precursor; Probably made from the HdeB-His6 construct; also called H59N mutant
binding [7]: no binding (condition: at low pH)

Continued, values first:

binding [4]: no binding
B3: HdeB E41Q (natural protein, E. coli, UniProt P0AET2 30-108, looked up)
chain: B1 chain with E12Q, A26W, A27W
notes: HdeB, E. coli, with E41Q; residue numbers count on the precursor; The methods speak of 'purified HdeB-His6 WT and E41Q samples'; probably the same construct and host as the wild type; also called E41Q mutant; source: purified mutant protein

binding [5]: no binding (condition: at low pH) | binding [6]: no binding (condition: at low pH)
B4: HdeB D76N (natural protein, E. coli, UniProt P0AET2 30-108, looked up)
chain: B1 chain with A26W, A27W, D47N
notes: HdeB, E. coli, with D76N; residue numbers count on the precursor; Probably made from the HdeB-His6 construct; also called D67N (as printed in two places)
